Test results taken from the supplement of paper PMC10849652.
Some of the results follow.

Chains of the proteins cited; added tags and fusions are not shown. Lines headed by an entry give the natural chain unless they say otherwise; changes in a name come on top.
UniProt O14757: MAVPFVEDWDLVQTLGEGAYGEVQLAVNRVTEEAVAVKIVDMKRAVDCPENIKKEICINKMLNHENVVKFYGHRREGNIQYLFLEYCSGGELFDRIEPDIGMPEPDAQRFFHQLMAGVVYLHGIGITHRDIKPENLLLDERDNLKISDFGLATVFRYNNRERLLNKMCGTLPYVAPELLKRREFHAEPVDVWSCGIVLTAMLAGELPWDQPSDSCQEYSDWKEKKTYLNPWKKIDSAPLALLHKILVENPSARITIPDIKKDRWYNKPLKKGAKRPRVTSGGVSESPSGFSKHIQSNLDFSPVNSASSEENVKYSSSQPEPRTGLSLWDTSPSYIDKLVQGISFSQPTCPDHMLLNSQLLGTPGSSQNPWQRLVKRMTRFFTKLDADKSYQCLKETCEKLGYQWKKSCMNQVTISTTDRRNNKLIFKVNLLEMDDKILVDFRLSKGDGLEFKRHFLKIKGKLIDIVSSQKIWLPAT
UniProt Q9NPF2: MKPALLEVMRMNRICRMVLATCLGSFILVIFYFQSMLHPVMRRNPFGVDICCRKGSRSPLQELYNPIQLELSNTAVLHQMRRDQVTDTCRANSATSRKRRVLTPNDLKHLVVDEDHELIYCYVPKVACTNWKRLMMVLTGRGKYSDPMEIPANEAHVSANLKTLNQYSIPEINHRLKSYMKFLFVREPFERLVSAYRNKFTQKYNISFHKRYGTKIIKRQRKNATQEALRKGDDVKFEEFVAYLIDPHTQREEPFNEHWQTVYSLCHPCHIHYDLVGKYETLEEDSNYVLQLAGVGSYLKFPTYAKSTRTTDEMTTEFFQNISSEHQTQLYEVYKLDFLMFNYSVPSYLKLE
UniProt Q9Y696: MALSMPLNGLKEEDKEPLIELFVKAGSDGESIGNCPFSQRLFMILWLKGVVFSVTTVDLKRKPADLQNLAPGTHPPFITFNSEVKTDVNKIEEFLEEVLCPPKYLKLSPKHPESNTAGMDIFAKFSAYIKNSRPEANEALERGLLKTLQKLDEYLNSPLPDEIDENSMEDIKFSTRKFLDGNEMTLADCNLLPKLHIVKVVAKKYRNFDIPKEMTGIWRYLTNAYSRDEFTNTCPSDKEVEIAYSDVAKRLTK
UniProt Q9H6Q4: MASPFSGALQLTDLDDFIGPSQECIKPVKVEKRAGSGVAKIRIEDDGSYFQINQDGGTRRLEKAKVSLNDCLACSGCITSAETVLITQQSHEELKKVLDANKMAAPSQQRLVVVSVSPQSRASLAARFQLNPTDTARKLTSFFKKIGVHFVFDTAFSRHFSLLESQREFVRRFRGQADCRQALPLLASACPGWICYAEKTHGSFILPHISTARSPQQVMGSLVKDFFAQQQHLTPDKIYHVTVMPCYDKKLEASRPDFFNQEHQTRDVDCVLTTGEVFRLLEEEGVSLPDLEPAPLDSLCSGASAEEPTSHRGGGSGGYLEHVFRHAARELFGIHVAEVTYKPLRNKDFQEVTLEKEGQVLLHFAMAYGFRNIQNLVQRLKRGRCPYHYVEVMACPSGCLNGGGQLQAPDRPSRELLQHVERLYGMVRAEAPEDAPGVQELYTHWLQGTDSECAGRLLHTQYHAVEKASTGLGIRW
UniProt Q15846: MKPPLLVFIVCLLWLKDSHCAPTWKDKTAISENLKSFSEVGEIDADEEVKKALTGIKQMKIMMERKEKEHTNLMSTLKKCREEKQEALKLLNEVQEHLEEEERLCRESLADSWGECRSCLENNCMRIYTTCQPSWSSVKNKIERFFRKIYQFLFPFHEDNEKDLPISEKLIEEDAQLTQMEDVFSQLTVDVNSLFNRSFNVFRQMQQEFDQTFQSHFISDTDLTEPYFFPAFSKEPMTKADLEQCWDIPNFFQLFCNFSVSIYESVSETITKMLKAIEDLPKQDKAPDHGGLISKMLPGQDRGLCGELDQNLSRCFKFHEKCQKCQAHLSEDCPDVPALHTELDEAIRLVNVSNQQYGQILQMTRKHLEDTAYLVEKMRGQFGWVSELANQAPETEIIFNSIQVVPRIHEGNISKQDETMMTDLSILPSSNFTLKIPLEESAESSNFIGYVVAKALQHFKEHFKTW
UniProt Q9NY35: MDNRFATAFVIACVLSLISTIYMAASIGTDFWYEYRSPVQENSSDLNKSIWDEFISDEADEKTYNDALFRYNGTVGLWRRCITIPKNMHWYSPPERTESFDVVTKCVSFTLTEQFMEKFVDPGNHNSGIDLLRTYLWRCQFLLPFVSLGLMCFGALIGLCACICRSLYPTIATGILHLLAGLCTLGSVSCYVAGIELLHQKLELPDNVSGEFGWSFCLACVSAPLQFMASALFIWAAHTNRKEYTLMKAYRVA
UniProt Q96KA5: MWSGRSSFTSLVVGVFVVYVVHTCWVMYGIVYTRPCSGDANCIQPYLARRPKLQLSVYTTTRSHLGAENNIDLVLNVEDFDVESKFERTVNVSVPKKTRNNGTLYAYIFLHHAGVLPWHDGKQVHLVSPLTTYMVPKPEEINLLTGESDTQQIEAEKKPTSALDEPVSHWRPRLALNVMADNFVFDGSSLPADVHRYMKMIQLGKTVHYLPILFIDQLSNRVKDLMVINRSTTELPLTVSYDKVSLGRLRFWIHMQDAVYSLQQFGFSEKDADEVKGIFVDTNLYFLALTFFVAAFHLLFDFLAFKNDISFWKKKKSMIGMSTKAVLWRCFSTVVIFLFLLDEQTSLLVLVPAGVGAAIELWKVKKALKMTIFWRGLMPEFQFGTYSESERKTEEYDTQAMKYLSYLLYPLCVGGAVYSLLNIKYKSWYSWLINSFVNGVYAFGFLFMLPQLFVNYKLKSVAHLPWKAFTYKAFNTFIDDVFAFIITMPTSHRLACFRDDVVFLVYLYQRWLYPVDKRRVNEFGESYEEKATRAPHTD
UniProt Q9NZZ3: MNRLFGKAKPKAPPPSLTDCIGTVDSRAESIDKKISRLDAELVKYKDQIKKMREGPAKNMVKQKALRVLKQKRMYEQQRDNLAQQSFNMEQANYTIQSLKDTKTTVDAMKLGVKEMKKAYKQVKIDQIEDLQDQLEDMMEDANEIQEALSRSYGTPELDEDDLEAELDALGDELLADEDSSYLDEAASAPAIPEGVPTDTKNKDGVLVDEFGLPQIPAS
UniProt Q9NSE2: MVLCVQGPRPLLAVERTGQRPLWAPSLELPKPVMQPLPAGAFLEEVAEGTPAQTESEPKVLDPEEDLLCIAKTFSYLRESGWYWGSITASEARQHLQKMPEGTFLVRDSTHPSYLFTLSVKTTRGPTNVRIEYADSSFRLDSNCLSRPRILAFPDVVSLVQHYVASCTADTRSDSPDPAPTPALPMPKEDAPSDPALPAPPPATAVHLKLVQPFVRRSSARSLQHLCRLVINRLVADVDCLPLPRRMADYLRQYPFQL
UniProt Q8IZR5: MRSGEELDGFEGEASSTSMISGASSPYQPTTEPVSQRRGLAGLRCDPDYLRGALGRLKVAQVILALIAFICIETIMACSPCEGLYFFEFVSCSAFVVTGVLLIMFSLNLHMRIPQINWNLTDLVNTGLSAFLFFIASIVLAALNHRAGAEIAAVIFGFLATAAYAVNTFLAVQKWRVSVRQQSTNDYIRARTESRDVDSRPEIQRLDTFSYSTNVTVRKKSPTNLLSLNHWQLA
UniProt Q8IY22: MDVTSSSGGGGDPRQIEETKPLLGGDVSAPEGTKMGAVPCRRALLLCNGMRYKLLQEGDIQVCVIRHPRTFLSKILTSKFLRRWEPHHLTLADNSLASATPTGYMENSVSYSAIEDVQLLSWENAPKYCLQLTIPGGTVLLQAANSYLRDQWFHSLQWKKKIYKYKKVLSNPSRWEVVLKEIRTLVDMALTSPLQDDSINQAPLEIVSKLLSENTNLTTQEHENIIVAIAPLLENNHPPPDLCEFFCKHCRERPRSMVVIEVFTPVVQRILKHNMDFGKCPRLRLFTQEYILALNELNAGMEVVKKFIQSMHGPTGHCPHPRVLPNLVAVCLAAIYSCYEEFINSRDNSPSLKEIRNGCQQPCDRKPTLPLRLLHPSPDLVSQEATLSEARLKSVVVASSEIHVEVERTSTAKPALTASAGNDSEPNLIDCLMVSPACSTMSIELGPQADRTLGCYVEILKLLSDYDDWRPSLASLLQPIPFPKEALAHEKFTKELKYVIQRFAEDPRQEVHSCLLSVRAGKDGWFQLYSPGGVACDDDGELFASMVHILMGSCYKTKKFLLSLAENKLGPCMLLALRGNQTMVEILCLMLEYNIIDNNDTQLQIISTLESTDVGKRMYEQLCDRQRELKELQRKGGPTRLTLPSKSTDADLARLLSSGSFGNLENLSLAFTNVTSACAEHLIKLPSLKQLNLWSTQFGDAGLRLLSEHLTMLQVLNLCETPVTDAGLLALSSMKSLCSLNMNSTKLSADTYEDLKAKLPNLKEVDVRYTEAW
UniProt Q14839: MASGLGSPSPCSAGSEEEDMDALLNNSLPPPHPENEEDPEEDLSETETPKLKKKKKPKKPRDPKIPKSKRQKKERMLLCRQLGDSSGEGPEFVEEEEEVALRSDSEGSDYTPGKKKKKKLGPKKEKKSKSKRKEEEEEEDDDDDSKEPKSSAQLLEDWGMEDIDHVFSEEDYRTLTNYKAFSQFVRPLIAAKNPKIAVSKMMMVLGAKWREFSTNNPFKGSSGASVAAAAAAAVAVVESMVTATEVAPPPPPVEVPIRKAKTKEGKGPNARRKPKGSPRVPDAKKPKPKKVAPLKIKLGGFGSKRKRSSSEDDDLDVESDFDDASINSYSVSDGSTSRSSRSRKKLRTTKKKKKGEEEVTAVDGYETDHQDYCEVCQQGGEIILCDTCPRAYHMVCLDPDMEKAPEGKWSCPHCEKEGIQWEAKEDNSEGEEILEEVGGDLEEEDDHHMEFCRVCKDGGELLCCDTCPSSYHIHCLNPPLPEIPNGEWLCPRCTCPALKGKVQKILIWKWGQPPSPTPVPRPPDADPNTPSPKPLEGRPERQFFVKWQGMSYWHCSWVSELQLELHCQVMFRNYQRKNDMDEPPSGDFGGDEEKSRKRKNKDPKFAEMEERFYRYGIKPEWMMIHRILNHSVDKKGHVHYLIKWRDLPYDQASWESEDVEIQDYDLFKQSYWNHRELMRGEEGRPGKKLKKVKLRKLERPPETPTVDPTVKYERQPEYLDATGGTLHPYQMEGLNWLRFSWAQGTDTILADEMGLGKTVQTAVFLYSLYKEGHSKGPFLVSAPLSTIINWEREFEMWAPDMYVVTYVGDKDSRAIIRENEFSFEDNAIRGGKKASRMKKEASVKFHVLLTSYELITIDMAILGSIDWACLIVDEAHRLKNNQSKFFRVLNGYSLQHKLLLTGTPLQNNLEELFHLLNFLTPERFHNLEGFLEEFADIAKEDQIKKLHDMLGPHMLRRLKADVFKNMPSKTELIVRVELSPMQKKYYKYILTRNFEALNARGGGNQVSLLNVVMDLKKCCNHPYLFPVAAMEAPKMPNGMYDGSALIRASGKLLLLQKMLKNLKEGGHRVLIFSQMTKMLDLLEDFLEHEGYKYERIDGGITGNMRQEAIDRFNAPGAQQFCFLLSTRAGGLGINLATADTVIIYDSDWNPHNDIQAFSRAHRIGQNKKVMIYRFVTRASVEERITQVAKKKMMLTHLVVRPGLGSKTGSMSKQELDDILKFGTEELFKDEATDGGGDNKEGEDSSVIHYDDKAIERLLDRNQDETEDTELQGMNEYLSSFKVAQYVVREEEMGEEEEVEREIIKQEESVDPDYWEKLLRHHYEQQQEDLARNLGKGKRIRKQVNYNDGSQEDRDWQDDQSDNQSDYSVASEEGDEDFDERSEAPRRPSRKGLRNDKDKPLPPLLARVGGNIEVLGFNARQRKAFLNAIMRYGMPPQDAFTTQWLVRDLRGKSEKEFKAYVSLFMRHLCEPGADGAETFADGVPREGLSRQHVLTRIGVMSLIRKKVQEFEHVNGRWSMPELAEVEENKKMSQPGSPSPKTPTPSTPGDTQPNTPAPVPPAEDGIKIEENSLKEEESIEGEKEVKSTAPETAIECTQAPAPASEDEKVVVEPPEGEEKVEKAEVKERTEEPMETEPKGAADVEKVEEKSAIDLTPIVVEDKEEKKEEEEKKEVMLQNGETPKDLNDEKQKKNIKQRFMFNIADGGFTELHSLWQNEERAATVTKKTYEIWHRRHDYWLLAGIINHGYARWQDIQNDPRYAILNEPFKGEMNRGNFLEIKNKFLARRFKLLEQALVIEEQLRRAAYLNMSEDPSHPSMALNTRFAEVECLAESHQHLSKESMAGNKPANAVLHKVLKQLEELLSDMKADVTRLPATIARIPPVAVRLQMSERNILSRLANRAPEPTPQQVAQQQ
UniProt Q9NZ45: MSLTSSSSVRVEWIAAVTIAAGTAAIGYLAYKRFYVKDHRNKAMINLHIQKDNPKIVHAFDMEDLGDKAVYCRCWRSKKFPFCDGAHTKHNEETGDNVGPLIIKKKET
UniProt Q99653: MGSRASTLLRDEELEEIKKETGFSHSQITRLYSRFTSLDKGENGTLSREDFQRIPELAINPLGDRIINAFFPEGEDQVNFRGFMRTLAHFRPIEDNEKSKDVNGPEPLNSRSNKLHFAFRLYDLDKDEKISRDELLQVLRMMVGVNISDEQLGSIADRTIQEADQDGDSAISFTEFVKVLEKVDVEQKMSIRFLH

Columns and labels:
Assay in all cases: log2 fold change, soluble protein after heating vs DMSO (PISA); higher = thermal stabilisation; K562 lysate, 10 uM; active = over 0.2 and 3.5 SD of the protein, either way, in both replicates (recomputed)
[1] = compound: NCC(=O)Nc1ccc(-n2nc(C(F)(F)F)cc2-c2ccc3c(ccc4ccccc43)c2)cc1
Procedure, shortened: (§1)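 K562 pellets were dounce-homogenised in PBS pH 7.4 with 1 mM MgCl2, and the crude extract at 1 mg/mL protein was treated with 10 μM compound for 30 min. Aliquots were heated for 3 min across 48°C-58°C, pooled, and brought to 0.5% NP-40 at 4°C; soluble protein was the supernatant after 21,000xg for 90 min. Soluble protein was quantified by TMTpro 16plex LC-MS/MS with channel sums equalised, and reported as log2 fold change in thermal stability against DMSO controls, with values from duplicates.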

[2] = compound: O=C(CCCCCCC(=O)Nc1ccccc1)NO [vorinostat]
Procedure, shortened: as §1

[3] = compound: O=C(O)c1ccc2c(c1)nc(Nc1cccc(Cl)c1)c1ccncc12 [silmitasertib]
Procedure, shortened: as §1

[4] = compound: O=C1NC(=O)C(c2cnc3ccccn23)=C1c1cn2c3c(cc(F)cc13)CN(C(=O)N1CCCCC1)CC2
Procedure, shortened: as §1

[5] = compound: c1cn2cc(-c3ccc4cn[nH]c4c3)nc(Nc3ccc(N4CCOCC4)cc3)c2n1 [entospletinib]
Procedure, shortened: as §1

Row | Target | log2 fold change [1] | log2 fold change [2] | log2 fold change [3] | log2 fold change [4] | log2 fold change [5]
1 | CMTR1 (UniProt Q8N1G2) | inactive: -0.011 | inactive: -0.25 | inactive: 0.078 | inactive: 0.048 | inactive: 0.015
2 | CHD9 (UniProt Q3L8U1) | inactive: -0.018 | inactive: -0.111 | inactive: 0.075 | inactive: -0.012 | –
3 | CHD5 (UniProt Q8TDI0) | inactive: 0.059 | active: -0.261 | inactive: 0.007 | inactive: 0.042 | inactive: 0.025
4 | CLPTM1 (UniProt O96005) | inactive: -0.024 | inactive: 0.074 | inactive: 0.031 | inactive: 0.013 | inactive: -0.034
5 | CIZ1 (UniProt Q9ULV3) | inactive: 0.02 | inactive: 0.077 | inactive: -0.071 | inactive: 0.007 | inactive: -0.032
6 | CHEK1 (UniProt O14757) | inactive: 0.008 | inactive: 0.086 | inactive: 0.168 | inactive: -0.014 | inactive: 0.009
7 | CHST11 (UniProt Q9NPF2) | inactive: -0.144 | inactive: 0.149 | inactive: 0.062 | inactive: -0.03 | inactive: 0.113
8 | CMC1 (UniProt Q7Z7K0) | inactive: 0.039 | inactive: 0.086 | inactive: 0.037 | inactive: 0.017 | inactive: -0.08
9 | CLIC4 (UniProt Q9Y696) | inactive: 0.024 | inactive: -0.009 | inactive: -0.002 | inactive: 0.032 | inactive: 0.002
10 | CHIC1 (UniProt Q5VXU3) | inactive: -0.001 | – | – | – | –
11 | CIAO3 (UniProt Q9H6Q4) | inactive: 0.011 | inactive: -0.182 | inactive: 0.003 | inactive: 0.033 | inactive: -0.01
12 | CNBP isoform 4 (UniProt P62633) | inactive: -0.027 | inactive: -0.191 | inactive: 0.099 | inactive: 0.067 | inactive: -0.096
13 | CLUL1 (UniProt Q15846) | inactive: -0.132 | – | – | – | –
14 | CKMT2 (UniProt P17540) | inactive: 0.044 | inactive: -0.038 | inactive: -0.023 | inactive: 0.115 | inactive: 0.013
15 | CHD7 (UniProt Q9P2D1) | inactive: -0.071 | inactive: -0.187 | inactive: 0.053 | inactive: 0.086 | inactive: -0.026
16 | CHPF2 (UniProt Q9P2E5) | inactive: -0.031 | inactive: -0.076 | inactive: 0.361 | inactive: -0.009 | inactive: -0.019
17 | CISD2 (UniProt Q8N5K1) | inactive: 0.015 | inactive: 0.111 | inactive: 0.007 | inactive: -0.013 | inactive: -0.011
18 | CLDND1 (UniProt Q9NY35) | inactive: -0.053 | inactive: 0.04 | inactive: 0.014 | inactive: -0.115 | inactive: 0.114
19 | CLPTM1L (UniProt Q96KA5) | inactive: -0.045 | inactive: 0.136 | inactive: 0.012 | inactive: 0.012 | inactive: -0.039
20 | CHMP5 (UniProt Q9NZZ3) | inactive: -0.008 | inactive: 0.113 | inactive: -0.003 | inactive: -0.006 | inactive: 0.013
21 | CISH isoform 3 (UniProt Q9NSE2) | inactive: -0.035 | – | – | – | –
22 | CMTM4 (UniProt Q8IZR5) | inactive: 0.187 | inactive: 0.167 | inactive: 0.091 | inactive: -0.028 | –
23 | CMIP (UniProt Q8IY22) | inactive: -0.101 | active: -0.541 | inactive: 0.018 | inactive: 0.021 | inactive: -0.052
24 | CHD4 isoform 2 (UniProt Q14839) | inactive: 0.023 | active: -0.284 | inactive: -0.006 | inactive: 0.015 | inactive: -0.01
25 | CISD1 (UniProt Q9NZ45) | inactive: 0 | inactive: 0.144 | inactive: -0.04 | inactive: 0.024 | inactive: -0.028
26 | CMTM3 (UniProt Q96MX0) | inactive: 0.05 | active: -0.516 | inactive: -0.004 | inactive: -0.03 | inactive: -0.004
27 | CHP1 (UniProt Q99653) | inactive: 0.031 | inactive: 0.076 | inactive: -0.013 | inactive: 0.013 | inactive: 0.01

Given in markdown: entries from further up.

| Row | Target | log2 fold change [1] | log2 fold change [2] | log2 fold change [3] | log2 fold change [4] | log2 fold change [5] |
| --- | --- | --- | --- | --- | --- | --- |
| 8 | CMC1 (UniProt Q7Z7K0) | inactive: 0.039 | inactive: 0.086 | inactive: 0.037 | inactive: 0.017 | inactive: -0.08 |
| 9 | CLIC4 (UniProt Q9Y696) | inactive: 0.024 | inactive: -0.009 | inactive: -0.002 | inactive: 0.032 | inactive: 0.002 |
| 10 | CHIC1 (UniProt Q5VXU3) | inactive: -0.001 | – | – | – | – |
| 11 | CIAO3 (UniProt Q9H6Q4) | inactive: 0.011 | inactive: -0.182 | inactive: 0.003 | inactive: 0.033 | inactive: -0.01 |
| 12 | CNBP isoform 4 (UniProt P62633) | inactive: -0.027 | inactive: -0.191 | inactive: 0.099 | inactive: 0.067 | inactive: -0.096 |
| 13 | CLUL1 (UniProt Q15846) | inactive: -0.132 | – | – | – | – |
| 14 | CKMT2 (UniProt P17540) | inactive: 0.044 | inactive: -0.038 | inactive: -0.023 | inactive: 0.115 | inactive: 0.013 |
| 15 | CHD7 (UniProt Q9P2D1) | inactive: -0.071 | inactive: -0.187 | inactive: 0.053 | inactive: 0.086 | inactive: -0.026 |
